# Measured values from PubChem BioAssay AID2417 (National Center for Advancing Translational Sciences (NCATS), 2010).
# Out of some 140,000 compounds screened, about 4,300 (3.1%) were called active. This list was built around the results that the source calls inconclusive (neither active nor inactive); the mix of calls is not that of the screen.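 How the source made its calls: active means readout at or below -70, meaning at least 70% loss of cells showing the perinucleolar compartment, a nuclear body marking cancer cells; inconclusive means readout between -30 and a set limit; inactive means the rest.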
# Test: High Content Assay for Compounds that inhibit the Assembly of the Perinucleolar Compartment;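 further: plate controls were DMSO wells for no effect and camptothecin positive control wells for full effect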
# Settings: PC3M PTB-GFP, PNC prevalence imaging, 16 h; at 10 µM; hits give low values
# Procedure, shortened: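 PC3M cells stably expressing PTB-GFP, 750–1000 cells/well, treated 16 h at 37 °C with compound (23 nl of library stock), in duplicate. After paraformaldehyde fixation and Hoechst stain, imaged at 20x; PNC prevalence scored by image analysis.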
row,SMILES,"activity change (PNC), negative = inhibition"
1,CCOC(=O)c1c(C)n(C)c2ccc(OC)c(NC(=O)CN3CCN(C4CCCCC4)CC3)c12,inconclusive: -44.9%
2,Nc1nc(SCC(=O)N2CCc3ccccc3C2)[nH]c(=O)c1-c1ccccc1,inactive: -17.7%
3,O=[N+]([O-])c1ccc(/C=C/c2ccc3cccc([N+](=O)[O-])c3n2)cc1,inactive: -9.26%
4,Cc1csc(NC(=O)CSc2nnc(-c3cccs3)n2C)n1,inconclusive: -50.9%
5,Cc1ccc(SCC2(O)CCN(S(=O)(=O)c3ccc(Cl)cc3)CC2)cc1,active: -100%
6,Clc1ccccc1-c1nn2c(Cn3cnc4ccccc43)nnc2s1,inactive: -4.83%
7,CN(C)C(=O)/C(C#N)=C\c1cc(Br)c(Sc2ccc(Cl)cc2)o1,inconclusive: -48.6%
8,Cc1nc2ccccc2c(=O)n1NC(=O)c1c(O)c2c(n(CC(C)C)c1=O)CCCC2,active: -94.5%
9,COc1cc(-c2cc(C(=O)OCC(=O)Nc3ccc4c(c3)OCO4)c3ccccc3n2)cc(OC)c1OC,inconclusive: -54.7%
10,CCOc1ccc(C(=O)O)cc1OC,inconclusive: -30.4%
11,CCn1c(COc2ccc(=O)n(-c3ccccc3)n2)nnc1SCc1cccc(OC)c1,inconclusive: -39.1%
12,N#CC1=C(N)Oc2cc(O)ccc2C1c1ccncc1 (stereo not given),inconclusive: -35.2%
13,O=C(/C=C/c1ccccc1)NCCSCc1ccccc1,inconclusive: -64.4%
14,Cc1cc2cc(CNC(=S)Nc3ccc(OC(F)(F)F)cc3)ccc2[nH]1,inactive: 13.8%
15,O=C1C(c2ccncc2)N(CCC2=CCCCC2)C(=O)CN1C1CCCCC1 (stereo not given),inconclusive: -47.1%
16,CC(=O)C1C(c2ccncc2)NC(=O)NC1(O)C(F)(F)F (stereo not given),inconclusive: -32.9%
17,O=[N+]([O-])c1ccc(N=Cc2sc3ccccc3c2O)cc1,inactive: -25.3%
18,CCOC(=O)c1ccc(S(=O)(=O)N2CCNCC2)cc1,inconclusive: -44.7%
19,O=C(NCc1cccs1)c1ccc2c(c1)OCCO2,inconclusive: -67.4%
20,CC(=O)N(CCN(C(C)=O)c1ccccc1)c1ccccc1,inconclusive: -56.1%
21,N#Cc1nc(COc2ccccc2F)oc1N1CCCCCC1,inactive: -1.86%
22,COc1ccccc1NS(=O)(=O)c1cccc(NC(=O)NC2CCCCC2)c1,inconclusive: -34.7%
23,Cc1ccc(/C=N/Nc2ccc(Cl)c(C(=O)O)c2)s1,inconclusive: -41.2%

row,SMILES,"activity change (PNC), negative = inhibition"
1,COc1ccc(/C=N/Nc2nnc(-c3ccccc3)c(=O)[nH]2)cc1,inconclusive: -68.1%
2,Cc1ccc(C(=O)C[n+]2cc(-c3ccccc3)n3c2CCCCC3)cc1,inconclusive: -31.1%
3,CC/S(CC1CC1(Cl)Cl)=N\S(=O)(=O)c1ccc(C)cc1 (stereo not given),inconclusive: -37.6%
4,COc1cccc(NC(=O)CNC(=O)c2ccc(F)cc2)c1,inconclusive: -47.7%
5,CCC(=O)/C=C1\Sc2ccc(OC)cc2N1CCO,inconclusive: -43.4%
6,O=C(OC1CCc2ccccc2C1=O)c1ccccc1O (stereo not given),inconclusive: -33.2%
7,CCCCOc1ccc(C(=O)NCc2ccccn2)cc1,inactive: -7.2%
8,O=C(NCC1CCCC(CNC(=O)N2CCc3ccccc32)C1)N1CCc2ccccc21 (stereo not given),inconclusive: -39.3%
9,CC1CCCN(S(=O)(=O)c2ccc(C(=O)Nc3nnc(-c4ccccc4Cl)o3)cc2)C1 (stereo not given),inconclusive: -42.7%
10,CN1C(=O)CSc2ccc(NC(=O)N3CCOCC3)cc21,inconclusive: -55.3%
11,Cc1cc(C(C)(C)C)ccc1OCCOCCN1CCCC1,inconclusive: -75.3%
12,COc1cc(NC(=O)c2ccccc2)c(OC)cc1NC(C)=O,inactive: 2.91%
13,COc1ccc(/C=N/Nc2nnc(-c3ncc[nH]3)c3ccccc23)cc1,inactive: 14.7%
14,O=C(COC(=O)c1ccccc1NC(=O)c1ccco1)Nc1ncc(Cl)cc1Cl,inconclusive: -41.5%
15,Cc1ccc(-c2noc(CCCN3C(=O)c4ccccc4C3=O)n2)cc1,inconclusive: -43.4%
16,Cc1ccc(N(CC(=O)N2CC(=O)Nc3ccccc32)S(=O)(=O)c2ccc3c(c2)OCCO3)cc1,active: -100%
17,CNC[C@H](O)c1cccc(O)c1,inactive: 10.9%
18,Cc1nn(CC(=O)Nc2ccc(Cl)c(S(=O)(=O)N(C)C)c2)c(C)c1[N+](=O)[O-],inactive: 44.2%
19,CC(NC(N)=O)C(=O)OCc1ccc(Cl)cc1Cl (stereo not given),inactive: 20.7%
20,CCOc1ncccc1C(=O)OCC(=O)Nc1cc(S(=O)(=O)N2CCOCC2)ccc1Cl,inconclusive: -43.2%
21,O=C1c2ccccc2C(Nc2ccc(S(=O)(=O)N3CCCCCC3)cc2)N1c1ccccn1 (stereo not given),active: -93.3%
22,COC(=O)c1sccc1NS(=O)(=O)c1ccc(OC)cc1,inactive: 13.1%
23,O=C(CCCOc1ccc(Cl)cc1Cl)N1CCN(c2ccccn2)CC1,inactive: -7.14%

# A second format for some results above:
row	SMILES	activity change (PNC), negative = inhibition
23	Cc1ccc(/C=N/Nc2ccc(Cl)c(C(=O)O)c2)s1	inconclusive: -41.2%
1	COc1ccc(/C=N/Nc2nnc(-c3ccccc3)c(=O)[nH]2)cc1	inconclusive: -68.1%
2	Cc1ccc(C(=O)C[n+]2cc(-c3ccccc3)n3c2CCCCC3)cc1	inconclusive: -31.1%
3	CC/S(CC1CC1(Cl)Cl)=N\S(=O)(=O)c1ccc(C)cc1 (stereo not given)	inconclusive: -37.6%
4	COc1cccc(NC(=O)CNC(=O)c2ccc(F)cc2)c1	inconclusive: -47.7%
5	CCC(=O)/C=C1\Sc2ccc(OC)cc2N1CCO	inconclusive: -43.4%
6	O=C(OC1CCc2ccccc2C1=O)c1ccccc1O (stereo not given)	inconclusive: -33.2%
7	CCCCOc1ccc(C(=O)NCc2ccccn2)cc1	inactive: -7.2%
8	O=C(NCC1CCCC(CNC(=O)N2CCc3ccccc32)C1)N1CCc2ccccc21 (stereo not given)	inconclusive: -39.3%
9	CC1CCCN(S(=O)(=O)c2ccc(C(=O)Nc3nnc(-c4ccccc4Cl)o3)cc2)C1 (stereo not given)	inconclusive: -42.7%
10	CN1C(=O)CSc2ccc(NC(=O)N3CCOCC3)cc21	inconclusive: -55.3%
11	Cc1cc(C(C)(C)C)ccc1OCCOCCN1CCCC1	inconclusive: -75.3%
12	COc1cc(NC(=O)c2ccccc2)c(OC)cc1NC(C)=O	inactive: 2.91%
13	COc1ccc(/C=N/Nc2nnc(-c3ncc[nH]3)c3ccccc23)cc1	inactive: 14.7%
14	O=C(COC(=O)c1ccccc1NC(=O)c1ccco1)Nc1ncc(Cl)cc1Cl	inconclusive: -41.5%
15	Cc1ccc(-c2noc(CCCN3C(=O)c4ccccc4C3=O)n2)cc1	inconclusive: -43.4%
16	Cc1ccc(N(CC(=O)N2CC(=O)Nc3ccccc32)S(=O)(=O)c2ccc3c(c2)OCCO3)cc1	active: -100%
17	CNC[C@H](O)c1cccc(O)c1	inactive: 10.9%
18	Cc1nn(CC(=O)Nc2ccc(Cl)c(S(=O)(=O)N(C)C)c2)c(C)c1[N+](=O)[O-]	inactive: 44.2%
19	CC(NC(N)=O)C(=O)OCc1ccc(Cl)cc1Cl (stereo not given)	inactive: 20.7%
20	CCOc1ncccc1C(=O)OCC(=O)Nc1cc(S(=O)(=O)N2CCOCC2)ccc1Cl	inconclusive: -43.2%
21	O=C1c2ccccc2C(Nc2ccc(S(=O)(=O)N3CCCCCC3)cc2)N1c1ccccn1 (stereo not given)	active: -93.3%
22	COC(=O)c1sccc1NS(=O)(=O)c1ccc(OC)cc1	inactive: 13.1%

# (further entries)

row,SMILES,"activity change (PNC), negative = inhibition"
1,COc1cccc(-c2nc(CS(=O)CC(=O)NC3CC3)c(C)o2)c1 (stereo not given),inconclusive: -42.6%
2,COC(=O)c1ccc(COC(=O)CNC(=O)c2ccco2)cc1,inconclusive: -43.6%
3,COc1ccc(S(=O)(=O)N(C)CC(=O)Nc2ccc3c(c2)OCO3)cc1,inconclusive: -35.1%
4,Cc1cc(N2CCN(C(=O)OC(C)(C)C)CC2)n2ncnc2n1,active: -88.5%
5,COc1cccc(OC)c1C(=O)Nc1ccc(NC(=O)c2ccco2)cc1,inconclusive: -40.6%
6,O=C(NC1CC1)c1ccc2c3c(cccc13)CC2,inconclusive: -38.4%
7,COc1cc(C2C3=C(CC(C)(C)CC3=O)OC(N)=C2[N+](=O)[O-])ccc1O (stereo not given),inactive: -3.49%
8,CCN(CC(=O)NC1CCCC1)S(=O)(=O)c1ccc(C)cc1,inconclusive: -70.2%
9,Cc1[nH]c2ccc(-c3nnc(SCC(=O)NCc4ccco4)n3Cc3ccccc3)cc2c1C,inactive: 11.6%
10,O=C(Nc1ccc(Br)c(Cl)c1)c1ccco1,inconclusive: -50.1%
11,CCCCCCn1c(CN2CCN(C)CC2)nc2c1c(=O)n(C)c(=O)n2C,active: -122%
12,O=C(Nc1cc(SCCO)cc([N+](=O)[O-])c1)c1ccc(Br)o1,inactive: 18.6%
13,CCCC(=O)NC(=S)Nc1ccccc1F,inconclusive: -53.8%
14,O=C(CCSc1ccccc1)NCC1CCCO1 (stereo not given),inconclusive: -30.2%
15,CCCNC(=O)c1cc(SC)ccc1Cl,inactive: 32.6%
16,CC1=C(C(=O)Nc2ccc(C)cc2)C(c2ccc(C)o2)C2=C(CC(C)(C)CC2=O)N1 (stereo not given),inconclusive: -39.1%
17,O=C(c1ccc(Br)o1)N1CCN(Cc2ccc3c(c2)OCO3)CC1,inconclusive: -31.7%
18,COc1ccc(-c2oc3ncn(Cc4ccco4)c(=N)c3c2-c2ccc(OC)cc2)cc1,inconclusive: -30%
19,CN(c1cccc(Cl)c1)S(=O)(=O)c1cccc(C(=O)Nc2ccc3c(c2)CCC3)c1,inconclusive: -61.7%
20,Cc1ccc(N2C(=O)/C(=C/c3cccnc3)SC2=S)cc1,inconclusive: -39.6%
21,NC(=S)NN=C1c2cc(S(=O)(=O)N3CCOCC3)ccc2-c2ccc(S(=O)(=O)N3CCOCC3)cc21,inconclusive: -56.3%
22,COc1cccc(OCCNc2cc(N3CCOCC3)ccc2[N+](=O)[O-])c1,inconclusive: -33.7%
23,CCCCC1S/C(=N/N=C/c2cccs2)NC1=O (stereo not given),inconclusive: -63.2%

row,SMILES,"activity change (PNC), negative = inhibition"
1,Cc1ccc(S(=O)(=O)N2CCC(C(=O)Nc3nnc(-c4ccco4)s3)CC2)cc1,inconclusive: -47.3%
2,CCCn1c(=O)c2ccccc2n2c(Sc3nnnn3-c3ccccc3)nnc12,inconclusive: -77%
3,O=S(=O)(c1ccc(Br)cc1)N1CCCC1c1nc2ccccc2s1 (stereo not given),active: -100%
4,CCC(=O)N1CCc2cc(S(=O)(=O)NC(Cc3ccccc3)C(=O)NC3CCCCC3)ccc21 (stereo not given),inactive: 68.8%
5,Cc1cccc(NC(=O)CSc2nnc(NC(=O)CN3CCOCC3)s2)c1,inconclusive: -39.8%
6,O=C1CCCC(O)=C1C(C#Cc1ccccc1)C1=C(O)CCCC1=O,inconclusive: -34.8%
7,C=CCn1c(SCC(=O)Nc2cccc(OC)c2)nnc1-c1cccnc1,inconclusive: -53.6%
8,O=C(Nc1cccc(-c2nc3cccnc3s2)c1)C1c2ccccc2Oc2ccccc21,active: -119%
9,COC(=O)C1C2C=CC3(CN(c4ccc(Cl)c(F)c4)C(=O)C13)O2 (stereo not given),inconclusive: -35.2%
10,O=C(CN1CCCCC1)Nc1ccc(NC(=O)c2ccc(Cl)cc2)cc1Cl,inactive: -21.5%
11,Cc1ccc(C(=O)Oc2ccc(C(=O)COC(=O)C3CC(=O)N(Cc4ccco4)C3)cc2)cc1 (stereo not given),inactive: -18.9%
12,O=c1c(-c2nc3ccccc3s2)cccn1Cc1ccccc1,inconclusive: -40.2%
13,O=C1Nc2ccccc2C(O)(C(=O)NCc2ccc3c(c2)OCO3)N1c1ccccc1 (stereo not given),inactive: -11.5%
14,Cc1cccnc1NC(=O)Cn1nc(C)c([N+](=O)[O-])c1C,inconclusive: -46.9%
15,O=C(Nc1nnc(SCc2ccc(Cl)cc2)s1)C1CC(=O)N(Cc2ccccc2)C1 (stereo not given),inconclusive: -32.5%
16,O=C(CCS(=O)(=O)Cc1ccc(Cl)cc1)NCCCN1CCOCC1,inactive: 5.14%
17,COc1cccc(NC(=O)Cn2cnc3sc(C)c(S(=O)(=O)N4CCN(C)CC4)c3c2=O)c1,active: -100%
18,Cc1cc2ncc(-c3ccc(Cl)cc3)c(N)n2n1,active: -108%
19,O=C(NCCSc1c[nH]c2ccccc12)c1ccco1,inactive: -4.53%
20,CCOc1ccccc1NC(=O)c1cc(CC(C)C)oc1C,inconclusive: -34.9%
21,Cc1nn(-c2ccccc2)c2c1C(O)n1c(nc3ccccc31)S2 (stereo not given),inconclusive: -32%
